Assay results from patent US20230094083A1 (YEDA RESEARCH AND DEVELOPMENT, published 2023).
Results are given in words; binding and its absence hold for the method and conditions named. Some binding calls cover weakened binding; strength is not graded here.

Protein sequences, listed by entry. Tags and fused reporters are not part of them. Residues count along the entry.
UniProt P14625, residues 22-803: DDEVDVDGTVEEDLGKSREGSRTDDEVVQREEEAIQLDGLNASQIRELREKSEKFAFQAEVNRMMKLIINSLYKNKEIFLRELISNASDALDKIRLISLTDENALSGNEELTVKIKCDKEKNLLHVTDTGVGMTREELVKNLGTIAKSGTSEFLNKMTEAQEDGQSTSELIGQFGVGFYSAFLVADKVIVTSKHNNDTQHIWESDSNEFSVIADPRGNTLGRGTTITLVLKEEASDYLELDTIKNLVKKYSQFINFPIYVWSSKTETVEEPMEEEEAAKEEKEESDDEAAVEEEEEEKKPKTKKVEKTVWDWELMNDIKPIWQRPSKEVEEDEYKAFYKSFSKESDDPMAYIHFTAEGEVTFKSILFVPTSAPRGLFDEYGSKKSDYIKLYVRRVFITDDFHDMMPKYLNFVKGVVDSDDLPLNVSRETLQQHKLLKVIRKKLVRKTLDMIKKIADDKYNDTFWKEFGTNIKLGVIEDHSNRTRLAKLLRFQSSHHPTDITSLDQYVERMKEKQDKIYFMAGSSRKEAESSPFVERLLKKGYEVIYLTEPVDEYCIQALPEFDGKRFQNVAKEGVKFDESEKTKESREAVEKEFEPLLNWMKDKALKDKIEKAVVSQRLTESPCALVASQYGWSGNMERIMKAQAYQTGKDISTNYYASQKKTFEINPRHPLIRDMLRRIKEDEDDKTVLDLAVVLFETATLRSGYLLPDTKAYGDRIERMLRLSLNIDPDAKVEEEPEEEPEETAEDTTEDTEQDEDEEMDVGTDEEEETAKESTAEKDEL
UniProt P08113, residues 22-802: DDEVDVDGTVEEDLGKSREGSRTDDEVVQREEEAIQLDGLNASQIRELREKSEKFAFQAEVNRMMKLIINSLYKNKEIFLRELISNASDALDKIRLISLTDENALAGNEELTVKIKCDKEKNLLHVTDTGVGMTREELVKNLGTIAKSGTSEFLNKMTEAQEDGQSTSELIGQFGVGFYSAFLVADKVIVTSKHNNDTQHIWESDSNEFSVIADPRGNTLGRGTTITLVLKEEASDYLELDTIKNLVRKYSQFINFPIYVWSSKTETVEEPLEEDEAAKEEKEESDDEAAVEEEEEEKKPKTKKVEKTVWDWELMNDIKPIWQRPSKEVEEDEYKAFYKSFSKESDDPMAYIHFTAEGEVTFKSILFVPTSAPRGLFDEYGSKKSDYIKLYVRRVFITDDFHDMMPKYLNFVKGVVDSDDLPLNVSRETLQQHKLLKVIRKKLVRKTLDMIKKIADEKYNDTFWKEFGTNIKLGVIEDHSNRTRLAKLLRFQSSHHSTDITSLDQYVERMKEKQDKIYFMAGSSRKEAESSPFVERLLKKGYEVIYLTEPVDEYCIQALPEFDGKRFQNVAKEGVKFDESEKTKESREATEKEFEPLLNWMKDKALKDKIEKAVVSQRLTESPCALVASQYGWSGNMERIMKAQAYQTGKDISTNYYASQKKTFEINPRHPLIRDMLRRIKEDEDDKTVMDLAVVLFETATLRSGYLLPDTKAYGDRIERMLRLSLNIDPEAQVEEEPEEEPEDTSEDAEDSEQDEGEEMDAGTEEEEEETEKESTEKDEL

Assays:
[1] = molecular target: recombinant human Grp94 (Creative Biomart, USA) (human) (UniProt P14625); assay: hybridoma screening; hybridoma screening for human Grp94 binding
[2] = molecular target: recombinant human Grp94 (Creative Biomart, USA) (human) (UniProt P14625); assay: Biacore T200 epitope binning on amine-coupled rhGrp94; Biacore T200 epitope binning
[3] = molecular target: mouse Grp94 on the cell surface (Meth A sarcoma cells; senescent primary mouse lung fibroblasts) (mouse) (UniProt P08113); assay: flow cytometry on Meth A sarcoma cells (FIG. 2)
[4] = molecular target: recombinant human Grp94 (Creative Biomart, USA) (human) (UniProt P14625); assay: Biacore T200 epitope binning on amine-coupled rhGrp94
[5] = molecular target: mouse Grp94 on the cell surface (Meth A sarcoma cells; senescent primary mouse lung fibroblasts) (mouse) (UniProt P08113); assay: flow cytometry on senescent and growing primary mouse fibroblasts
[6] = molecular target: mouse Grp94 on the cell surface (Meth A sarcoma cells; senescent primary mouse lung fibroblasts) (mouse) (UniProt P08113); assay: flow cytometry, hybridoma supernatant on senescent primary mouse fibroblasts
[7] = molecular target: mouse Grp94 on the cell surface (Meth A sarcoma cells; senescent primary mouse lung fibroblasts) (mouse) (UniProt P08113); assay: flow cytometry on senescent primary mouse fibroblasts, hybridoma supernatant; growing cells for comparison
[8] = molecular target: mouse Grp94 on the cell surface (Meth A sarcoma cells; senescent primary mouse lung fibroblasts) (mouse) (UniProt P08113); assay: flow cytometry on Meth A sarcoma cells, hybridoma supernatant neat and 1 in 2, AF647 goat anti-mouse IgG secondary
[9] = molecular target: recombinant human Grp94 (Creative Biomart, USA) (human) (UniProt P14625); assay: Biacore T200 single cycle kinetics, antibody captured on an anti-mouse surface, Grp94 as analyte at 11.1 to 100 nM
[10] = molecular target: recombinant human Grp94 (Creative Biomart, USA) (human) (UniProt P14625); assay: hybridoma screening

binding [1]	binding [2]	binding [3]	binding [4]	binding [5]	binding [6]	binding [7]	binding [8]	binding [9]	binding [10]	Binder
binds	binds	–	–	–	–	–	–	–	–	anti-Grp94 monoclonal antibody clone 9A3 (antibody, mouse IgG2a, V domains shown, Mouse hybridoma antibody, tested as hybridoma supernatant) VH: EVKLVESGGGLVKPGGSLKLSCAASGFTFRTYAMSWVRQTPEKRLEWVATITTGGPTYYPDNVKGRFTISRDNDRNILDLQMNSLRSEDTATYYCLRGATTGDYWGQGTTLIVSS VL: DIVMTQSHKFMFTSVGDRVSITCKASHDVSTAVAWYQQKPGQYPKLLIYWASNRYTGVPDRFTGSGSGMDFTFTISSVQAEDLAVYYCQQHSSTPYTFGGGTRLEIK
–	–	binds	binds	binds	binds	binds	binds	binds	–	anti-Grp94 monoclonal antibody clone 4C2 (antibody, V domains shown, Mouse hybridoma antibody; It was tested as hybridoma supernatant in the screens (ELISA, Meth A FACS, Biacore, binning); also called 4C2 clone hybridoma supernatant; monoclonal antibody 4C2) VH: EVQLVETGGGLVQPKGSLKLSCAASGFTFNTNAMNWVRQAPGKGLEWVARIRSKSNNYATYYADSVKDRFTISRDDSQSMLFLQMNNLKTEDTAMYYCVRDTLAWFAYWGQGTLVTVSA VL: QIVLTQSPAIMSASPGEKVTITCSASSSVSYMHWFQQKPDTSPKLWIYSTSNLASGVPARFSASGSGTSYSLTISRMEAEDAATYYCQQKTSYPPTFGAGTKLELK
–	–	–	binds	–	–	–	–	–	binds	anti-Grp94 monoclonal antibody clone 20H2 (antibody, V domains shown) VH: EVQLVETGGGLVQPQGSLKLSCAASGFTFNTNAMNWVRQAPGKGLEWVARIRSKSNNFVTYYADSVTDRFTISRDDSQSMLYLQMNSLKTGDTAMYYCVRDTATWFSYWGQGTLVTVSA VL: QIVLTQSPAIMSASPGERVTITCSASSSVSFMHWFQQKPGTSPKLWIYSTSNLASGVPARFSGSGSGTSYSLTISRMEAEDAATYYCQQRTNYPPTFGSGTKLEIK
–	–	–	binds	–	–	–	–	binds	binds	anti-Grp94 monoclonal antibody clone 5B2 (antibody, mouse IgG2a, V domains shown, Mouse hybridoma antibody, tested as hybridoma supernatant) VH: EVQLVETGGGLVQPKGSLKLSCAASGFTFNTNAMNWVRQAPGKGLEWVARIRSKSNNYATYYADSVKDRFTISRDDSQNMFYLQMNNLKTEDTAMYYCVRDTATWFAYWGQGTLVTVSA VL: QIVLTQSPALMSASPGEKVTIACSASSSVSYMHWFQQKPGTSPKLWIYSTSNLASGVPARFSGSGSGTSYSLTISRMEAEDAATYYCQQKTSYPPTFGSGTKLEIK
